B1: Serine/arginine repetitive matrix protein 1 (protein, UniProt Q8IYB3 1-904)
chain: MDAGFFRGTSAEQDNRFSNKQKKLLKQLKFAECLEKKVDMSKVNLEVIKPWITKRVTEILGFEDDVVIEFIFNQLEVKNPDSKMMQINLTGFLNGKNAREFMGELWPLLLSAQENIAGIPSAFLELKKEEIKQRQIEQEKLASMKKQDEDKDKRDKEEKESSREKRERSRSPRRRKSRSPSPRRRSSPVRRERKRSHSRSPRHRTKSRSPSPAPEKKEKTPELPEPSVKVKEPSVQEATSTSDILKVPKPEPIPEPKEPSPEKNSKKEKEKEKTRPRSRSRSKSRSRTRSRSPSHTRPRRRHRSRSRSYSPRRRPSPRRRPSPRRRTPPRRMPPPPRHRRSRSPVRRRRRSSASLSGSSSSSSSSRSRSPPKKPPKRTSSPPRKTRRLSPSASPPRRRHRPSPPATPPPKTRHSPTPQQSNRTRKSRVSVSPGRTSGKVTKHKGTEKRESPSPAPKPRKVELSESEEDKGGKMAAADSVQQRRQYRRQNQQSSSDSGSSSSSEDERPKRSHVKNGEVGRRRRHSPSRSASPSPRKRQKETSPRGRRRRSPSPPPTRRRRSPSPAPPPRRRRTPTPPPRRRTPSPPPRRRSPSPRRYSPPIQRRYSPSPPPKRRTASPPPPPKRRASPSPPPKRRVSHSPPPKQRSSPVTKRRSPSLSSKHRKGSSPSRSTREARSPQPNKRHSPSPRPRAPQTSSSPPPVRRGASSSPQRRQSPSPSTRPIRRVSRTPEPKKIKKAASPSPQSVRRVSSSRSVSGSPEPAAKKPPAPPSPVQSQSPSTNWSPAVPVKKAKSPTPSPSPPRNSDQEGGGKKKKKKKDKKHKKDKKHKKHKKHKKEKAVAAAAAAAVTPAAIAAATTTLAQEEPVAAPEPKKETESEAEDNLDDLEKHLREKALRSMRKAQVSPQS
B2: ATP-dependent RNA helicase DDX24 (protein, UniProt Q9GZR7 1-859)
chain: MKLKDTKSRPKQSSCGKFQTKGIKVVGKWKEVKIDPNMFADGQMDDLVCFEELTDYQLVSPAKNPSSLFSKEAPKRKAQAVSEEEEEEEGKSSSPKKKIKLKKSKNVATEGTSTQKEFEVKDPELEAQGDDMVCDDPEAGEMTSENLVQTAPKKKKNKGKKGLEPSQSTAAKVPKKAKTWIPEVHDQKADVSAWKDLFVPRPVLRALSFLGFSAPTPIQALTLAPAIRDKLDILGAAETGSGKTLAFAIPMIHAVLQWQKRNAAPPPSNTEAPPGETRTEAGAETRSPGKAEAESDALPDDTVIESEALPSDIAAEARAKTGGTVSDQALLFGDDDAGEGPSSLIREKPVPKQNENEEENLDKEQTGNLKQELDDKSATCKAYPKRPLLGLVLTPTRELAVQVKQHIDAVARFTGIKTAILVGGMSTQKQQRMLNRRPEIVVATPGRLWELIKEKHYHLRNLRQLRCLVVDEADRMVEKGHFAELSQLLEMLNDSQYNPKRQTLVFSATLTLVHQAPARILHKKHTKKMDKTAKLDLLMQKIGMRGKPKVIDLTRNEATVETLTETKIHCETDEKDFYLYYFLMQYPGRSLVFANSISCIKRLSGLLKVLDIMPLTLHACMHQKQRLRNLEQFARLEDCVLLATDVAARGLDIPKVQHVIHYQVPRTSEIYVHRSGRTARATNEGLSLMLIGPEDVINFKKIYKTLKKDEDIPLFPVQTKYMDVVKERIRLARQIEKSEYRNFQACLHNSWIEQAAAALEIELEEDMYKGGKADQQEERRRQKQMKVLKKELRHLLSQPLFTESQKTKYPTQSGKPPLLVSAPSKSESALSCLSKQKKKKTKKPKEPQPEQPQPSTSAN
B3: Barrier-to-autointegration factor (protein, UniProt O75531 1-89)
chain: MTTSQKHRDFVAEPMGEKPVGSLAGIGEVLGKKLEERGFDKAYVVLGQFLVLKKDEDLFREWLKDTCGANAKQSRDCFGCLREWCDAFL
B4: Pregnancy zone protein (protein, UniProt P20742 26-1482)
chain: TEPQYMVLVPSLLHTEAPKKGCVLLSHLNETVTVSASLESGRENRSLFTDLVAEKDLFHCVSFTLPRISASSEVAFLSIQIKGPTQDFRKRNTVLVLNTQSLVFVQTDKPMYKPGQTVRFRVVSVDENFRPRNELIPLIYLENPRRNRIAQWQSLKLEAGINQLSFPLSSEPIQGSYRVVVQTESGGRIQHPFTVEEFVLPKFEVKVQVPKIISIMDEKVNITVCGEYTYGKPVPGLATVSLCRKLSRVLNCDKQEVCEEFSQQLNSNGCITQQVHTKMLQITNTGFEMKLRVEARIREEGTDLEVTANRISEITNIVSKLKFVKVDSHFRQGIPFFAQVLLVDGKGVPIPNKLFFISVNDANYYSNATTNEQGLAQFSINTTSISVNKLFVRVFTVHPNLCFHYSWVAEDHQGAQHTANRVFSLSGSYIHLEPVAGTLPCGHTETITAHYTLNRQAMGELSELSFHYLIMAKGVIVRSGTHTLPVESGDMKGSFALSFPVESDVAPIARMFIFAILPDGEVVGDSEKFEIENCLANKVDLSFSPAQSPPASHAHLQVAAAPQSLCALRAVDQSVLLMKPEAELSVSSVYNLLTVKDLTNFPDNVDQQEEEQGHCPRPFFIHNGAIYVPLSSNEADIYSFLKGMGLKVFTNSKIRKPKSCSVIPSVSAGAVGQGYYGAGLGVVERPYVPQLGTYNVIPLNNEQSSGPVPETVRSYFPETWIWELVAVNSSGVAEVGVTVPDTITEWKAGAFCLSEDAGLGISSTASLRAFQPFFVELTMPYSVIRGEVFTLKATVLNYLPKCIRVSVQLKASPAFLASQNTKGEESYCICGNERQTLSWTVTPKTLGNVNFSVSAEAMQSLELCGNEVVEVPEIKRKDTVIKTLLVEAEGIEQEKTFSSMTCASGANVSEQLSLKLPSNVVKESARASFSVLGDILGSAMQNIQNLLQMPYGCGEQNMVLFAPNIYVLNYLNETQQLTQEIKAKAVGYLITGYQRQLNYKHQDGSYSTFGERYGRNQGNTWLTAFVLKTFAQARSYIFIDEAHITQSLTWLSQMQKDNGCFRSSGSLLNNAIKGGVEDEATLSAYVTIALLEIPLPVTNPIVRNALFCLESAWNVAKEGTHGSHVYTKALLAYAFSLLGKQNQNREILNSLDKEAVKEDNLVHWERPQRPKAPVGHLYQTQAPSAEVEMTSYVLLAYLTAQPAPTSGDLTSATNIVKWIMKQQNAQGGFSSTQDTVVALHALSRYGAATFTRTEKTAQVTVQDSQTFSTNFQVDNNNLLLLQQISLPELPGEYVITVTGERCVYLQTSMKYNILPEKEDSPFALKVQTVPQTCDGHKAHTSFQISLTISYTGNRPASNMVIVDVKMVSGFIPLKPTVKMLERSSSVSRTEVSNNHVLIYVEQVTNQTLSFSFMVLQDIPVGDLKPAIVKVYDYYETDESVVAEYIAPCSTDTEHGNV
B5: Polyadenylate-binding protein 2 (protein, UniProt Q86U42 1-306)
chain: MAAAAAAAAAAGAAGGRGSGPGRRRHLVPGAGGEAGEGAPGGAGDYGNGLESEELEPEELLLEPEPEPEPEEEPPRPRAPPGAPGPGPGSGAPGSQEEEEEPGLVEGDPGDGAIEDPELEAIKARVREMEEEAEKLKELQNEVEKQMNMSPPPGNAGPVIMSIEEKMEADARSIYVGNVDYGATAEELEAHFHGCGSVNRVTILCDKFSGHPKGFAYIEFSDKESVRTSLALDESLFRGRQIKVIPKRTNRPGISTTDRGFPRARYRARTTNYNSSRSRFYSGFNSRPRGRVYRGRARATSWYSPY
B6: Testis-specific Y-encoded-like protein 2 (protein, UniProt Q9H2G4 1-693)
chain: MDRPDEGPPAKTRRLSSSESPQRDPPPPPPPPPLLRLPLPPPQQRPRLQEETEAAQVLADMRGVGLGPALPPPPPYVILEEGGIRAYFTLGAECPGWDSTIESGYGEAPPPTESLEALPTPEASGGSLEIDFQVVQSSSFGGEGALETCSAVGWAPQRLVDPKSKEEAIIIVEDEDEDERESMRSSRRRRRRRRRKQRKVKRESRERNAERMESILQALEDIQLDLEAVNIKAGKAFLRLKRKFIQMRRPFLERRDLIIQHIPGFWVKAFLNHPRISILINRRDEDIFRYLTNLQVQDLRHISMGYKMKLYFQTNPYFTNMVIVKEFQRNRSGRLVSHSTPIRWHRGQEPQARRHGNQDASHSFFSWFSNHSLPEADRIAEIIKNDLWVNPLRYYLRERGSRIKRKKQEMKKRKTRGRCEVVIMEDAPDYYAVEDIFSEISDIDETIHDIKISDFMETTDYFETTDNEITDINENICDSENPDHNEVPNNETTDNNESADDHETTDNNESADDNNENPEDNNKNTDDNEENPNNNENTYGNNFFKGGFWGSHGNNQDSSDSDNEADEASDDEDNDGNEGDNEGSDDDGNEGDNEGSDDDDRDIEYYEKVIEDFDKDQADYEDVIEIISDESVEEEGIEEGIQQDEDIYEEGNYEEEGSEDVWEEGEDSDDSDLEDVLQVPNGWANPGKRGKTG
B7: Type-1 angiotensin II receptor-associated protein (protein, UniProt Q6RW13 1-159)
chain: MELPAVNLKVILLGHWLLTTWGCIVFSGSYAWANFTILALGVWAVAQRDSIDAISMFLGGLLATIFLDIVHISIFYPRVSLTDTGRFGVGMAILSLLLKPLSCCFVYHMYRERGGELLVHTGFLGSSQDRSAYQTIDSAEAPADPFAVPEGRSQDARGY

Sequences of proteins named here, by UniProt entry; tags and fusion partners are left off. Residues count along the entry.
UniProt P42771: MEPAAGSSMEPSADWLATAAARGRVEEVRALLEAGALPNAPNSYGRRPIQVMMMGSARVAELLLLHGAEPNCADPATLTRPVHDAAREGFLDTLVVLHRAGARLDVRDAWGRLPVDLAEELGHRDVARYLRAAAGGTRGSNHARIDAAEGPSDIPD
UniProt O75643: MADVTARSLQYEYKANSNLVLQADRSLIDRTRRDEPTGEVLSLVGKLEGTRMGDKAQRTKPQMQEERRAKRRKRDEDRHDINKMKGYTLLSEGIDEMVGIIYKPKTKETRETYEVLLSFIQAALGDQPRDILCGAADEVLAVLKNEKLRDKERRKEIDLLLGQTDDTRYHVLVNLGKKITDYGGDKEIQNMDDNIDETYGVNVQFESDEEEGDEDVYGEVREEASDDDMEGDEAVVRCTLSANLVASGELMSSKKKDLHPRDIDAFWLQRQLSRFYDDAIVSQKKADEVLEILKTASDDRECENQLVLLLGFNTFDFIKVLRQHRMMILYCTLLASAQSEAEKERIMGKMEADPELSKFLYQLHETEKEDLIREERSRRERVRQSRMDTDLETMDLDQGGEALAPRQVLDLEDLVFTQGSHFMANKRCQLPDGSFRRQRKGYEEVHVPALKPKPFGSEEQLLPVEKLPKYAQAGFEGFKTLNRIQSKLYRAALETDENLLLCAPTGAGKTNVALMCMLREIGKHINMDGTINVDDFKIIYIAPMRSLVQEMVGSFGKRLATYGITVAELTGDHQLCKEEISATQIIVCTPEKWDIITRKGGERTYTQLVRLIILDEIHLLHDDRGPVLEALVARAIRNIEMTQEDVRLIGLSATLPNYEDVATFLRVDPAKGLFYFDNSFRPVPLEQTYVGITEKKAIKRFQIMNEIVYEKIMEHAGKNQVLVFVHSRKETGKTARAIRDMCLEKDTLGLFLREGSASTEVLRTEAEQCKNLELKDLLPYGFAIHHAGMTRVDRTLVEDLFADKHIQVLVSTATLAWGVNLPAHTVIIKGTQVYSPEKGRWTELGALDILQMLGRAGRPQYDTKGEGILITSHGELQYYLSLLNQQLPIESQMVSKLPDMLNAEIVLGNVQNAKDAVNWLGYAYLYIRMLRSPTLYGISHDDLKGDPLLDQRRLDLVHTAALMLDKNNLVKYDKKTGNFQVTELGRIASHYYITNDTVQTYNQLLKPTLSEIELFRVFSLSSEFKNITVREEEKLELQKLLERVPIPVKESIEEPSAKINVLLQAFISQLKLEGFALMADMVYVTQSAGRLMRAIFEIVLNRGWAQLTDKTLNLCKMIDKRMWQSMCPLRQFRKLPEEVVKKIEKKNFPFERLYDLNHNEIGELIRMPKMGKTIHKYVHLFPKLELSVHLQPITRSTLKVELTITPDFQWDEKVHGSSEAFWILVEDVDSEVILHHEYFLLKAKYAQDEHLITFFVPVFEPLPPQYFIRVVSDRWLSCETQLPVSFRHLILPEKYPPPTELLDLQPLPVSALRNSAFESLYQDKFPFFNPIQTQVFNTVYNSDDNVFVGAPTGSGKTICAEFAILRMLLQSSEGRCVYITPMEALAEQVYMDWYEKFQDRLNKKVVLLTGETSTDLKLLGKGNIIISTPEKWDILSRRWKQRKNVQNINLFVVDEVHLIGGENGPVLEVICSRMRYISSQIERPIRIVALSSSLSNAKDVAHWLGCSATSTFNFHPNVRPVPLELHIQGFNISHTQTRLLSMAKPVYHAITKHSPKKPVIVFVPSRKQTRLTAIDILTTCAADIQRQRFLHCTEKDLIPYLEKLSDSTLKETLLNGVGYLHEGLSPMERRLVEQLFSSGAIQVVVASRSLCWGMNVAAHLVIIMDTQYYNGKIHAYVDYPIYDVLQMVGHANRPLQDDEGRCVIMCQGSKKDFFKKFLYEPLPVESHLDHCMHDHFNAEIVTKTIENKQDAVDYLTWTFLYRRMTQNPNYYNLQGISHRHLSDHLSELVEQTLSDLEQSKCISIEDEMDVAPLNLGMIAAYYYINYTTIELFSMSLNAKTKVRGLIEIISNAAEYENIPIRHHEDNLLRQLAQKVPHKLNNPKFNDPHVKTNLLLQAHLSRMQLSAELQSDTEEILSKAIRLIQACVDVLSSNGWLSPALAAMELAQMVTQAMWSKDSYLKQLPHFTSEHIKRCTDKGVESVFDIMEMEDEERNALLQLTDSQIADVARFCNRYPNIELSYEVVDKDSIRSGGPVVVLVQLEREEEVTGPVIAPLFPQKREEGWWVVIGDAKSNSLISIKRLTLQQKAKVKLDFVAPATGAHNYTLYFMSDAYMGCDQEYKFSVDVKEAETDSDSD
UniProt O43823: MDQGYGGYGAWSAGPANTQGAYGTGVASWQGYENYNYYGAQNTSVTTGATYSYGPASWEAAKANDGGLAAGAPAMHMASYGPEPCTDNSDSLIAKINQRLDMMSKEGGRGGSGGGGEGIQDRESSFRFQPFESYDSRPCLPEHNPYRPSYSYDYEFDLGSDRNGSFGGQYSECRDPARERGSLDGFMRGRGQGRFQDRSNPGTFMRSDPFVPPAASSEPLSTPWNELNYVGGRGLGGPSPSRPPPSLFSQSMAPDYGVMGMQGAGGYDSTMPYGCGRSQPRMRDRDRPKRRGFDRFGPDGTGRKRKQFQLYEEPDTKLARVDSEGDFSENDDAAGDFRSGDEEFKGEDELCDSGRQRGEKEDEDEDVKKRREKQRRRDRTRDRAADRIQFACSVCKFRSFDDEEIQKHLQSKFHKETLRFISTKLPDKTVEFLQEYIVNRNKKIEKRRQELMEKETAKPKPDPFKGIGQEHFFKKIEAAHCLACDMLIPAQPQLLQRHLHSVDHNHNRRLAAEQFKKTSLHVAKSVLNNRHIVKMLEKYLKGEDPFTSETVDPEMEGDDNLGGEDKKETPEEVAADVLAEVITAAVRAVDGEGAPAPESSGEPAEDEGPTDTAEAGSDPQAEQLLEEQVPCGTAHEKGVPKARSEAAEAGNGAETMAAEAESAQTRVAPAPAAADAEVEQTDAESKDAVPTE
UniProt Q07021, residues 74-282: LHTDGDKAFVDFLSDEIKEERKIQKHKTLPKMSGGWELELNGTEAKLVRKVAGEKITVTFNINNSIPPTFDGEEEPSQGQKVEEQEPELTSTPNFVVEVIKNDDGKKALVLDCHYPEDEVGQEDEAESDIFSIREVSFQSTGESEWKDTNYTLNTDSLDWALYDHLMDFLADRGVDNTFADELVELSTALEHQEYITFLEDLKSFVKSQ

Results are given in words; binding and its absence hold for the method and conditions named. Binding seen in cells or lysates may run through a third protein. Here binding means that the protein was enriched with, or labelled near, the bait; the list need not be complete.

This assay concerns the target cyclin-dependent kinase inhibitor 2A protein (human (endogenous in SiHa)) (UniProt P42771). The experiment in a line: affinity purification with mass spectrometry; anti-p16 and IgG immunoprecipitates from SiHa lysate, digested in-gel and in-solution, LC-MS/MS; hits found in both workflows with anti-p16 but not with IgG, FDR < 1%.
For the molecule “U5 small nuclear ribonucleoprotein 200 kDa helicase (from UniProt O75643 1-2136)”, the binding entry is “binds”.

Turning to “A-kinase anchor protein 8 (from UniProt O43823 1-692)”, the binding entry was “binds”.

For the molecule “Complement component 1 Q subcomponent-binding protein, mitochondrial (from UniProt Q07021 74-282)”, the binding entry is on record as “binds”.

As to B1, the binding entry was “binds”.

As to B2, the binding entry was “binds”.

As to B3, the binding result was “binds”.

As to B4, the binding entry is “binds”.

Consider B5, for which the binding entry is “binds”.

For the molecule B6, the binding result is reported as “binds”.

For B7, the binding entry is recorded as “binds”.

These data come from PMC7139571.
